The term AC50 denotes the concentration giving half of the maximal activity seen.

This is one part of the list. These are further read-outs of the screen, such as a control signal, another cell line or another target. No call is given for them. Compounds called inactive in the main read-out are mostly missing here. Potencies come from curve fits of mixed quality, noted in brackets.

For 58 compounds, cell number change and AC50 results are on record in PubChem BioAssay AID2685 (National Center for Advancing Translational Sciences (NCATS), 2010).

The nature of this assay: qHTS Assay for Lipid Storage Modulators in Drosophila S3 Cells.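 As to cell number change: cells counted by Cell Tracker Red CMTPX staining in the red channel.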 The note with it: BODIPY lipid droplet fluorescence, 18-24 h; for cell number change: measured here: cell count max response, cells fed with added oleic acid. An outline of the steps: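 Laser-scanning cytometry quantifies lipid droplet accumulation (500–530 nm total intensity; droplet/cell object ratio) in oleic acid-fed (400 uM added) Drosophila S3 cells treated with a concentration series. 20 uM Triacsin C defined 100% inhibition.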
In general terms: qHTS replaces the single test concentration by a dilution series.

The mark [1] stands for this setting: measured here: lipid fluorescence (Fed channel) AC50, cells fed with added oleic acid.
Setting [2] is: measured here: cell number channel AC50, cells fed with added oleic acid.

Take `CCOC(=O)c1nnc2ccnn2c1N`: the cell number change was -16.2%. Further, the AC50 under setting [1] was 4.11 µM [falling, single point]. Turning to `CN=C1NN=C(c2cc(C)n(-c3c(C)n(C)n(-c4ccccc4)c3=O)c2C)CS1`, the cell number change is -8.41%. Moreover, the AC50 under setting [1] was 18.4 µM [rising, single point]. On to `Cc1ccc(-n2c(Cl)c(Cl)[nH]c(=O)c2=O)cc1`, for which the AC50 under setting [1] was 0.116 µM [falling, full curve, poor fit]. As for `O=C(c1ccco1)N1CCN(C(c2ccccc2Cl)c2nnnn2Cc2cccs2)CC1` (centres undefined), the cell number change turned out to be 8.77%. The AC50 under setting [2] was 5.8 µM [rising, single point]. For the same compound, under setting [1], the concentration at half-maximal activity (AC50) was 4.11 µM [rising, single point].

Turning to `CCOC(=O)c1cnc(-n2[nH]c(C)cc2=O)[nH]c1=O`, the cell number change was -12%. Moreover, under setting [2], the AC50 was 0.411 µM [rising, full curve, poor fit]. The AC50 under setting [1] was 0.116 µM [rising, full curve, poor fit].

With `CN1CCN(c2nc3c(c(=O)n(C)c(=O)n3C)n2Cc2ccccc2)CC1`, the cell number change came to 6.57%. The half-maximal activity concentration (AC50) under setting [1] is 29.1 µM [rising, single point]. For the compound `Cc1ccc2nc(SCC(=O)Nc3cccc(S(=O)(=O)N(C)C)c3)[nH]c2c1`, the cell number change was -20.7%. In addition, the AC50 under setting [1] is 29.1 µM [falling, single point]. For the compound `Cc1noc(C)c1C(=O)N(CC(=O)Nc1ccc(Cl)c(C(F)(F)F)c1)Cc1ccco1`, the cell number change was -10.8%. Moreover, the concentration at half-maximal activity (AC50) under setting [1] was 13 µM [falling, partial curve].

For `CNC(=O)c1nc[nH]c1C(=O)NC`, the cell number change was -39%. For the same compound, the AC50 under setting [2] is 29.1 µM [falling, single point]. Turning to `COc1cc(C(=O)Nc2cc(C)ccn2)ccc1OCC(=O)N1CCOCC1`, the cell number change is -36.9%. Moreover, the AC50 under setting [2] was 16.4 µM [falling, single point]. With `CCOC(=O)C1(CC2CCCCO2)CCN(S(=O)(=O)c2ccc(C)s2)CC1` (centres undefined), the cell number change was -17.6%. In addition, the AC50 under setting [1] is 23.1 µM [falling, single point].

For the compound `O=C(Oc1csc(=S)n1C(=O)c1ccccc1)c1ccccc1`, the cell number change was -64.8%. Also, the AC50 under setting [2] is 1.3 µM [falling, full curve]. Also, under setting [1], the AC50 is 3.66 µM [falling, full curve]. Take `O=[N+]([O-])c1cc(-c2n(-c3ccccn3)c3ccccc3[n+]2-c2ccccn2)ccc1Cl`: the AC50 under setting [1] is 3.66 µM [falling, partial curve]. Turning to `COc1cc(/C=N/NC(=O)c2ccc(Cl)c(S(N)(=O)=O)c2)ccc1OCC(N)=O`, the cell number change worked out at 8.59%. In addition, under setting [1], the AC50 is 6.51 µM [rising, single point]. For `CSc1ccc(CCNC(=O)C2CCCN(S(=O)(=O)N3CCOCC3)C2)cc1` (centres undefined), the concentration at half-maximal activity (AC50) under setting [1] was 20.6 µM [rising, partial curve]. In the case of `Cc1ccc(Nc2nc(NCCO)c3ccccc3n2)cc1C`, the cell number change was -33.1%. The AC50 under setting [2] is 14.6 µM [falling, single point]. Further, under setting [1], the concentration at half-maximal activity (AC50) is 0.13 µM [falling, full curve, poor fit]. As to `COC(=O)c1nn(-c2ccc(OC)cc2)c(=O)cc1Oc1cccc(Cl)c1`, the cell number change was -24.4%. Moreover, under setting [1], the half-maximal activity concentration (AC50) is 29.1 µM [falling, single point].

`CCOc1ccc2nc(NC(=O)CSc3nc(SC)ns3)sc2c1`: the cell number change was -73.1%. Also, under setting [2], the AC50 is 16.4 µM [falling, partial curve]. Also, under setting [1], the AC50 is 8.2 µM [falling, partial curve]. On to `CCSc1nc(O)c(Cc2ccccc2)c(=O)[nH]1`, for which the cell number change is -35%. The AC50 under setting [2] was 8.2 µM [falling, partial curve]. The AC50 under setting [1] was 29.1 µM [falling, single point].

As for `O=C(Cn1c(NCCCO)nc2ccccc21)c1cccc(Br)c1`, the cell number change amounted to 4.69%. The concentration at half-maximal activity (AC50) under setting [1] is 18.4 µM [rising, single point]. `Cn1c(SCC(=O)Nc2ccc3cn[nH]c3c2)nnc1-c1cnccn1`: the cell number change was -15.1%. For the same compound, the half-maximal activity concentration (AC50) under setting [1] is 0.82 µM [rising, full curve, poor fit]. As for `CCc1nnc(NC(=O)C(C)N2C(=O)C3C4C=CC(C4)C3C2=O)s1` (centres undefined), the cell number change was determined as 17.7%. Also, the AC50 under setting [1] is 29.1 µM [rising, single point].

Turning to `Cc1cccc(NC(=O)c2ccc3c(c2)CCN3S(C)(=O)=O)c1C`, the cell number change was -9.68%. Moreover, under setting [1], the half-maximal activity concentration (AC50) was 0.82 µM [falling, full curve]. Consider `COc1ccc(C(=O)NCc2ccc3c(c2)OCO3)cc1S(=O)(=O)N(C)Cc1ccccc1`, for which the cell number change was found to be 9.07%. Also, under setting [1], the concentration at half-maximal activity (AC50) is 1.64 µM [rising, partial curve]. Consider `CN(Cc1cnn(Cc2ccccc2)c1)C(=O)c1cccc(S(=O)(=O)N2CCOCC2)c1`, for which the cell number change was 3.16%. Besides, the AC50 under setting [1] was 0.0259 µM [falling, full curve, poor fit].

As to `Cc1occc1-c1nnc(SCC(=O)N2CCCCC2C)o1` (centres undefined), the cell number change is -2.08%. Also, the AC50 under setting [1] was 1.64 µM [falling, partial curve, poor fit].

For `COc1ccc(CCNC(=O)CSc2ccc(NC(C)=O)cc2)cc1OC`, the cell number change came out at 9.91%. In addition, the AC50 under setting [1] was 0.82 µM [rising, full curve].

For `CC(O)CSc1nc2c(c(=O)[nH]c(=O)n2C)n1Cc1ccccc1Cl` (centres undefined), the cell number change is -20.6%. Besides, the AC50 under setting [1] was 25.9 µM [falling, single point]. On to `COc1ccc(/C=C(/C#N)C(=O)Nc2cccc(C)c2C)cc1C(=O)O`, for which the AC50 under setting [2] was 0.517 µM [rising, full curve, poor fit] and the concentration at half-maximal activity (AC50) under setting [1] was 0.651 µM [rising, full curve]. For the compound `COc1ccc(C2C(C(=O)NCc3cccnc3)c3ccccc3C(=O)N2C)cc1OC` (centres undefined), under setting [1], the AC50 is 2.31 µM [falling, full curve]. Turning to `CC(=O)Nc1ccc(-c2csc(-c3cccnc3)n2)cc1`, the cell number change was -14.4%. Besides, the concentration at half-maximal activity (AC50) under setting [1] is 29.1 µM [falling, single point]. `COc1ccc(-c2c(C)oc3c(CN4CCCC(C)C4)c(O)ccc3c2=O)cc1OC` (centres undefined): the cell number change was 31.9%. The half-maximal activity concentration (AC50) under setting [1] was 0.58 µM [rising, single point]. On to `CC(c1ccccc1)N1CC(C(=O)O)CC1=O` (centres undefined), for which the cell number change stood at 21.5%.

In the case of `Cc1ccc(C)c(OC(C)C(=O)Nc2nccs2)c1` (centres undefined), the cell number change was -4.05%. For the same compound, the concentration at half-maximal activity (AC50) under setting [1] is 0.731 µM [rising, single point]. As for `O=C(O)C1CCCCC1C(=O)Nc1ccc(OCc2ccccc2)cc1` (centres undefined), the cell number change is -10.2%. For the same compound, under setting [1], the half-maximal activity concentration (AC50) was 20.6 µM [rising, partial curve]. As to `NC(=O)c1ccc(-n2nnnc2SCC(=O)Nc2ccccc2F)cc1`, the cell number change was 51.5%. Moreover, the half-maximal activity concentration (AC50) under setting [2] is 29.1 µM [rising, single point]. `CCOc1ccc(C(=O)Nc2ccccc2OC(F)F)cc1`: the cell number change turned out to be 57.9%. The AC50 under setting [2] was 20.6 µM [rising, partial curve]. The half-maximal activity concentration (AC50) under setting [1] was 23.1 µM [rising, single point]. Turning to `CC(C)CCNC(=O)c1ccc2c(c1)N(Cc1ccccc1)C(=O)CS2=O` (centres undefined), the AC50 under setting [1] is 6.51 µM [rising, single point].

With `O=C(NCC1CCCO1)c1nn2c(C(F)(F)F)cc(-c3cccs3)nc2c1Cl` (centres undefined), the cell number change came out at 4.7%. Also, the AC50 under setting [1] was 1.64 µM [falling, partial curve, poor fit]. For `CC(=O)c1c(C)[nH]c(C(=O)CN2C(=O)NC(C)(CCC(C)C)C2=O)c1C` (centres undefined), the cell number change was found to be 28.3%. On the same count and under the same terms, then `COc1ccc(NC(=O)CNCCC2=CCCCC2)cc1`, with 4.22%. Take `CCOC(=O)Cc1nnc(NC(=O)COc2ccc(F)cc2)s1`: the cell number change was -16%. For the same compound, the AC50 under setting [1] was 0.146 µM [rising, full curve]. Take `CC1CCCN(CCCNC(=O)c2ccc(N3CCCC3=O)cc2)C1` (centres undefined): under setting [1], the AC50 is 9.2 µM [rising, partial curve]. Regarding `CCOC(=O)c1nnn(-c2nc(OC)nc(N3CCCCC3)n2)c1-c1ccccc1`, the cell number change was -11.7%. In addition, under setting [1], the AC50 is 0.00411 µM [falling, full curve, poor fit].

In the case of `C=C(C)COc1ccc(-c2nc(N)ncc2-c2ccc(Br)cc2)c(O)c1`, the cell number change is -23.4%. For the same compound, the AC50 under setting [1] is 29.1 µM [falling, partial curve, poor fit].

`COCCCNC(=O)CCc1c(C)nc2c(c(C)nn2-c2ccccc2)c1C`: under setting [2], the AC50 was 0.00461 µM [rising, full curve, poor fit]. With `CCCOc1ccc(S(=O)(=O)NCCCN2CCOCC2)c2ccccc12`, the cell number change was -15.1%. Under setting [1], the AC50 is 16.4 µM [falling, partial curve].

Consider `COc1cc(OC)cc(C(=O)N2CCN(S(C)(=O)=O)CC2)c1`, for which the cell number change is -13.3%.

As for `O=C(COc1ccc(Cl)cc1)Nc1nc(-c2ccncc2)cs1`, the cell number change turned out to be 20.4%. In addition, the half-maximal activity concentration (AC50) under setting [1] was 0.103 µM [rising, full curve, poor fit].

`CCOC(=O)N1CCN(C(=O)CN(C)S(=O)(=O)c2ccc(OCC)cc2)CC1`: the cell number change was 0.87%. For the same compound, the AC50 under setting [1] is 29.1 µM [rising, partial curve]. With `COc1cc(C2c3c(n[nH]c3C)C(=O)N2c2ccc(Br)cc2)ccc1O` (centres undefined), the AC50 is 1.84 µM [rising, partial curve] under setting [2] and 4.61 µM [rising, single point] under setting [1]. As for `CN(C)S(=O)(=O)N1CCC(Oc2ccc(C(=O)NC3Cc4ccccc4C3)cc2)CC1`, the cell number change worked out at 19.9%. Besides, the half-maximal activity concentration (AC50) under setting [2] is 0.103 µM [rising, full curve, poor fit]. Moreover, the half-maximal activity concentration (AC50) under setting [1] is 29.1 µM [rising, single point].

Consider `COc1cccc(CNc2ccc(S(=O)(=O)N3CCN(C)CC3)cn2)c1`, for which the cell number change was determined as 18.3%. Turning to `Cc1ccc(NC(=O)CN2C(=O)COc3ccc(C)cc32)nc1`, the cell number change is 67.5%. For the same compound, the concentration at half-maximal activity (AC50) under setting [2] was 18.4 µM [rising, single point]. For the same compound, under setting [1], the concentration at half-maximal activity (AC50) was 7.31 µM [rising, partial curve].

Regarding `CN(Cc1ccccc1)c1nc2c(c(=O)n(C)c(=O)n2C)n1CCSc1ncccn1`, the cell number change came out at 107%. The AC50 under setting [2] is 6.51 µM [rising, partial curve]. Under setting [1], the half-maximal activity concentration (AC50) was 6.51 µM [rising, single point]. Turning to `COc1cc(/C=C2\SC(=S)N(Nc3ncc(C(F)(F)F)cc3Cl)C2=O)cc(OC)c1OC`, the cell number change was -5.75%. Turning to `C/C(=N\NC(=O)Cc1cccn1C)c1ccc2ccccc2c1`, the cell number change came to 8.85%. For the same compound, the AC50 under setting [2] is 3.26 µM [rising, single point]. The AC50 under setting [1] is 29.1 µM [falling, single point]. On to `CCOC(=O)C(NC(=O)c1ccccc1)=C(C)C`, for which the AC50 is, setting by setting: under setting [2], 0.82 µM [falling, full curve]; under setting [1], 4.11 µM [falling, single point].
